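Luminescence from an EWS-FLI1 target-promoter (NR0B1) reporter, set against a CMV-promoter reporter, two days after silencing single genes in TC32 Ewing sarcoma cells. Each siRNA was applied at 20 nM. A z-score of the log NR0B1-over-CMV signal, less the median of siRNAs with the same seed; more negative means a stronger specific loss of the NR0B1 reporter.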

The strongest results of the screen are mostly left out here. Sequences are the guide (antisense) strand, without overhang.

UAAACAGUGCGUUUGAACA against DLX1 gave seed-corrected z-score 1.038.
UUACUUUUGAGUCUUACGG against C6orf203 gave seed-corrected z-score -1.035.
AUAGCUAUGAUAUCUUGAC against NDST4 gave seed-corrected z-score 0.5383.
UGCACCUAAAAAGUCCUGG against RANBP3L gave seed-corrected z-score 0.3901.
AUGCGUUUCAGCAUCGAGC against ARID5B gave seed-corrected z-score -0.5679.
UGUUGGUUACCUCUGAGCC against LIN37 gave seed-corrected z-score -1.248.
AAAGGAUAAGUAGAACAGG against RPL23AP2 gave seed-corrected z-score 0.2471.
UGAUCUUUCAUUGAACCUU against TMEM263 gave seed-corrected z-score 0.222.
UUGUCGUUGCGAUAGAUGG against RAB3A gave seed-corrected z-score -1.724.
UGGAUAAUGGGUGAUGUCG against NFIA gave seed-corrected z-score -0.4332.
UAUUUGUCCUGUAAGUGUU against LOC730129 gave seed-corrected z-score -0.1936.
UUAGCAAGCAUUCUCUCUC against FLJ46838 gave seed-corrected z-score -0.6498.
UUUGCGAUCAACAAGCCUC against C17orf105 gave seed-corrected z-score -0.3846.
UAUUUGAACUUGUCGAACC against EEF1D gave seed-corrected z-score -0.4034.
UUAUCUCUCAGCUCCACGC against TNF gave seed-corrected z-score -0.4176.
AGUUCUUUCACAUAUCUGC against LINC00705 gave seed-corrected z-score -0.6506.
UUCCGGGUAUCAGUGAAGC against EEF2 gave seed-corrected z-score 0.006079.
AACCGUCUUAAUAGAACUC against PDZD8 gave seed-corrected z-score 1.291.
UCAUUCAGCAUGCAGUUCC against AXL gave seed-corrected z-score -1.165.
UAAUCCAGCACGUUGAGCU against PIP5KL1 gave seed-corrected z-score -0.2965.
UAUGAAUAUAGGAUAAAAC against MGST2 gave seed-corrected z-score -0.007554.
UCUGAUGCUAUCUUCAUCC against TP63 gave seed-corrected z-score -0.5468.
UCCACGUAGAUCACAUUGC against RPGRIP1L gave seed-corrected z-score 0.561.
UCCUGAAUCUCCGUGAUGU against NXPH2 gave seed-corrected z-score 0.8486.
UCAGUUAUAGAACACCUCG against FAM131C gave seed-corrected z-score -0.0807.
UUCUCGAUGAUUUUGACGG against MKNK1 gave seed-corrected z-score 0.1588.
UACUGGUAGACGUGCAGCG against KIF26A gave seed-corrected z-score -0.2335.
AAACUUACAGGAGACGAUG against WDR88 gave seed-corrected z-score -0.906.

Data taken from PubChem BioAssay AID1159506, deposited by NCATS (2015).